# At least one structure is not confirmed: it was looked up by name or label, or the drawing left a doubt.
# Target: T1, GST-human KRas166 (G12V) GPPNHP (Homo sapiens, UniProt P01116, G12V)
# T1 construct: made in house; host or cells: E. coli C41(DE3)
# Experiment: KRas small-molecule screening by SPR (BIACORE T200)
# Assay type: binding
# Conditions: compound at final concentration of 100 uM; immobilised GST-KRAS166 (G12V) GPPNHP, GST reference channel
# Experimental: For SPR assays pGEX-KRAS(G12V) plasmid was transformed into E. coli C41(DE3). Bacterial cells were cultured at 37° C. to an OD600 of 0.6 and induced with IPTG (final 0.1 mM) at 18° C. overnight. The GST fusion proteins were extracted from bacteria pellets after cell disruption in 140 mM NaCl, 2.7 mM KCl, […], 1.8 mM KH2PO4, 1 mM EDTA, 2 mM MgCl2 pH 7.4 and purified by glutathione-sepharose column chromatography (GE Healthcare), eluting with 50 mM Tris-HCl pH8.0, 10 mM reduced glutathione, 1 mM DTT, 2 mM MgC2. The eluted proteins were dialysed against 50 mM Tris-HCl pH8.0, 1 mM DTT, 2 mM MgCl2 and concentrated to 10 mg/ml using a Biomax-30 […]-15 centrifugal filter device (Millipore). Purified KRAS protein was loaded with GPPNHP as described elsewhere (Pacold et al., 2000). Loaded protein was then purified by gel filtration on a HiLoad Superdex-75 HR column (GE Healthcare) in 1×PBS pH7.4, 5 mM MgCl2 and concentrated for storage.
# To a previously immobilized CM5 chip (GE Healthcare BR-1005-30) with anti GST antibody via amine coupling method, GST in channel 1 and GST-human KRas166 (G12V) GPPNHP in channel 2 were immobilised. GST was immobilised between 2,000 and 5,000 Response units. KRAS166 (G12V) was immobilized between 10,000 to 15,000 Response Units.
# In a 96 well plate, compounds were diluted in […], 5 mM MgCl2 and 5% DMSO Buffer to a final concentration of 100 uM. DCAI was used as positive control. Experiment also included a solvent correction curve for 5% DMSO. Screening and evaluation of the protein immobilization and the compounds screening was done accordingly to the BIACORE T200 control and evaluation software.
# Protein immobilisation: 10,000 RU; average fragment 300 Da in size. Rmax=(MWA/MWL)×RL×SM MWA is the molecular weight of the analyte in Da MWL is the molecular weight of the ligand in Da RL is the immobilization level in RU SM is the molar stoichiometry (assume 1:1) Rmax=300/47,500×10,000×1 Rmax=63 RU. Cell Viability Assay protocols
row,Structure (SMILES),SPR Response Units [Response Units]
1,"CN1CCN(Cc2cccc(C(=O)NC[C@@H]3COc4ccc(OCc5ccccc5)cc4O3)c2)CC1 [Example 7, N-((R)-7-Benzyloxy-2,3-dihydro-benzo[1,4]dioxin-2-ylmethyl)-3-(4-methyl-piperazin-1-ylmethyl)-benzamide]",145
2,"O=C(Cc1ccncc1)NC[C@@H]1COc2ccc(OCc3ccccc3)cc2O1 [Example 10, N-((R)-7-Benzyloxy-2,3-dihydro-benzo[1,4]dioxin-2-ylmethyl)-2-pyridin-4-yl-acetamide]",80
3,"c1ccc(COc2ccc3c(c2)O[C@H](CNCC2CCOCC2)CO3)cc1 [Example 33, ((R)-7-Benzyloxy-2,3-dihydro-benzo[1,4]dioxin-2-ylmethyl)-(tetrahydro-pyran-4-ylmethyl)-amine]",16

# — US11724999B2, “Inhibitors of RAS-effector protein interactions” (Oxford University Innovation Limited, priority 2018, dated 2023)
